What follows is the remainder of the data, with few or none of the targets with a hit. Single values of this set are uncertain. The list shows a part of the results, in another mix than the full data.
The targets below were run with COC(=O)/C=C/c1ccccc1 [methyl cinnamate] (assay: log2 ratio of iodoacetamide-alkyne labeling of the cysteine site, DMSO over compound (competition); higher = stronger covalent engagement of the cysteine by the compound, active = 1 or more). Conditions: 500 µM; treatment time 1 h; system: HEK293T cell lysate.
Summary of the method: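 HEK293T lysate at 2 mg/mL was treated with vehicle or electrophile (500 µM) for 1 h at ambient temperature, then labelled with iodoacetamide alkyne (1 h), clicked to sCIP-TMT reagents, pooled, digested with trypsin overnight at 37 °C, enriched on streptavidin and eluted with acid. Peptides were analysed by Orbitrap Eclipse LC-MS/MS with FAIMS and quantified in FragPipe, using duplicate channels and three replicates, with cysteines quantified in only one replicate excluded. The log2 competition ratio for each cysteine is the mean control-channel reporter intensity divided by the mean compound-channel reporter intensity.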

Chains of the proteins cited; added tags and fusions are not shown. Lines headed by an entry give the natural chain unless they say otherwise; changes in a name come on top.
UniProt Q8N300: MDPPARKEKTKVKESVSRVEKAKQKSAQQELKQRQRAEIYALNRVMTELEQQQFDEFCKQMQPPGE
UniProt Q8TDX7: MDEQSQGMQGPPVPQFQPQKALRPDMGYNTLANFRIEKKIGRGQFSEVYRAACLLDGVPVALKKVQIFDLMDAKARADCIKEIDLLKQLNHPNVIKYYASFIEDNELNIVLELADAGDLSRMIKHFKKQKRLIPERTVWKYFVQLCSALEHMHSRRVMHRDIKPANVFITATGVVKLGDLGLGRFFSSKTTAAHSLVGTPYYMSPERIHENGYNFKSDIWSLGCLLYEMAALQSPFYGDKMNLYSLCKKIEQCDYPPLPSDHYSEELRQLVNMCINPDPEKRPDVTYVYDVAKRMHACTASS
UniProt Q8NEC7: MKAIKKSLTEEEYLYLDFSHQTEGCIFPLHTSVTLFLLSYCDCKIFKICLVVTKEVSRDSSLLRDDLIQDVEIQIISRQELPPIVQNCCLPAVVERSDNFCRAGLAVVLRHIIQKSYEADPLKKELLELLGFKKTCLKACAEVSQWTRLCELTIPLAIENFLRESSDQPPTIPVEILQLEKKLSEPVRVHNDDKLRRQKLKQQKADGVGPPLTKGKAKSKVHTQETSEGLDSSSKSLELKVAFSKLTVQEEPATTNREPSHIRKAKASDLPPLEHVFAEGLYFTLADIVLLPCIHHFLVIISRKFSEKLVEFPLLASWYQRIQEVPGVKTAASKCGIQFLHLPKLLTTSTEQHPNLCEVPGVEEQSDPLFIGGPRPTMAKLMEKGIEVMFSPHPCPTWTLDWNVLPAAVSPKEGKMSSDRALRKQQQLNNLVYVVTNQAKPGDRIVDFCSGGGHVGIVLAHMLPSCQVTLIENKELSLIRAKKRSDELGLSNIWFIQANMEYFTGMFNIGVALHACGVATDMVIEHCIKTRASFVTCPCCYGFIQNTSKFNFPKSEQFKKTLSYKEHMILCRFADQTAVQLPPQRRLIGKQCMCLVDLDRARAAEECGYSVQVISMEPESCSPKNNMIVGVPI
UniProt Q8NC96: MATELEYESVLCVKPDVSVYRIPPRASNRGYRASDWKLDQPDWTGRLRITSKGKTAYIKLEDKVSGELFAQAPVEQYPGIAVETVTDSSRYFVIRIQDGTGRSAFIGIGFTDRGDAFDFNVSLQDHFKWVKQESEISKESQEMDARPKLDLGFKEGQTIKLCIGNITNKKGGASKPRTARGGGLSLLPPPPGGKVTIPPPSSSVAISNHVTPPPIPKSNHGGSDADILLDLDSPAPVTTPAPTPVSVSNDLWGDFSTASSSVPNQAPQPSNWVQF
UniProt Q8NBU5: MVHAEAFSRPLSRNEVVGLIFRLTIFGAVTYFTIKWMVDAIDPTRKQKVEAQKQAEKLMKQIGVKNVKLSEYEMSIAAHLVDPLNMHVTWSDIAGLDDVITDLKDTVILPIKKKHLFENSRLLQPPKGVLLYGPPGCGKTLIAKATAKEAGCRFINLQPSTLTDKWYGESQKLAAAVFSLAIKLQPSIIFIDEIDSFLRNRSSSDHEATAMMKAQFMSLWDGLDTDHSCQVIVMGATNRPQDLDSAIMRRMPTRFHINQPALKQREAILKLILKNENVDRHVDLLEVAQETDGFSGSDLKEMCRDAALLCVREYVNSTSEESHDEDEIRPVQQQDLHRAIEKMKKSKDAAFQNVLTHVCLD
UniProt Q8N8R5: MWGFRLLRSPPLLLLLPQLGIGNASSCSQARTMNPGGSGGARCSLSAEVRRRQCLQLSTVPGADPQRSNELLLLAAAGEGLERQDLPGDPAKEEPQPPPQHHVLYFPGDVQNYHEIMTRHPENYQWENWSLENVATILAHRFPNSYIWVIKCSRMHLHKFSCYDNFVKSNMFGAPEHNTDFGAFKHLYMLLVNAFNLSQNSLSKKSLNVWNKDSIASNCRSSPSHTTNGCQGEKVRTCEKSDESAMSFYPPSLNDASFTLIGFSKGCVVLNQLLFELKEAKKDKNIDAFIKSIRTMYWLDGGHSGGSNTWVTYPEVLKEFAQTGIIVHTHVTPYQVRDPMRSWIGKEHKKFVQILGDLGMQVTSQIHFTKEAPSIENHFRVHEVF
UniProt Q8NFC6: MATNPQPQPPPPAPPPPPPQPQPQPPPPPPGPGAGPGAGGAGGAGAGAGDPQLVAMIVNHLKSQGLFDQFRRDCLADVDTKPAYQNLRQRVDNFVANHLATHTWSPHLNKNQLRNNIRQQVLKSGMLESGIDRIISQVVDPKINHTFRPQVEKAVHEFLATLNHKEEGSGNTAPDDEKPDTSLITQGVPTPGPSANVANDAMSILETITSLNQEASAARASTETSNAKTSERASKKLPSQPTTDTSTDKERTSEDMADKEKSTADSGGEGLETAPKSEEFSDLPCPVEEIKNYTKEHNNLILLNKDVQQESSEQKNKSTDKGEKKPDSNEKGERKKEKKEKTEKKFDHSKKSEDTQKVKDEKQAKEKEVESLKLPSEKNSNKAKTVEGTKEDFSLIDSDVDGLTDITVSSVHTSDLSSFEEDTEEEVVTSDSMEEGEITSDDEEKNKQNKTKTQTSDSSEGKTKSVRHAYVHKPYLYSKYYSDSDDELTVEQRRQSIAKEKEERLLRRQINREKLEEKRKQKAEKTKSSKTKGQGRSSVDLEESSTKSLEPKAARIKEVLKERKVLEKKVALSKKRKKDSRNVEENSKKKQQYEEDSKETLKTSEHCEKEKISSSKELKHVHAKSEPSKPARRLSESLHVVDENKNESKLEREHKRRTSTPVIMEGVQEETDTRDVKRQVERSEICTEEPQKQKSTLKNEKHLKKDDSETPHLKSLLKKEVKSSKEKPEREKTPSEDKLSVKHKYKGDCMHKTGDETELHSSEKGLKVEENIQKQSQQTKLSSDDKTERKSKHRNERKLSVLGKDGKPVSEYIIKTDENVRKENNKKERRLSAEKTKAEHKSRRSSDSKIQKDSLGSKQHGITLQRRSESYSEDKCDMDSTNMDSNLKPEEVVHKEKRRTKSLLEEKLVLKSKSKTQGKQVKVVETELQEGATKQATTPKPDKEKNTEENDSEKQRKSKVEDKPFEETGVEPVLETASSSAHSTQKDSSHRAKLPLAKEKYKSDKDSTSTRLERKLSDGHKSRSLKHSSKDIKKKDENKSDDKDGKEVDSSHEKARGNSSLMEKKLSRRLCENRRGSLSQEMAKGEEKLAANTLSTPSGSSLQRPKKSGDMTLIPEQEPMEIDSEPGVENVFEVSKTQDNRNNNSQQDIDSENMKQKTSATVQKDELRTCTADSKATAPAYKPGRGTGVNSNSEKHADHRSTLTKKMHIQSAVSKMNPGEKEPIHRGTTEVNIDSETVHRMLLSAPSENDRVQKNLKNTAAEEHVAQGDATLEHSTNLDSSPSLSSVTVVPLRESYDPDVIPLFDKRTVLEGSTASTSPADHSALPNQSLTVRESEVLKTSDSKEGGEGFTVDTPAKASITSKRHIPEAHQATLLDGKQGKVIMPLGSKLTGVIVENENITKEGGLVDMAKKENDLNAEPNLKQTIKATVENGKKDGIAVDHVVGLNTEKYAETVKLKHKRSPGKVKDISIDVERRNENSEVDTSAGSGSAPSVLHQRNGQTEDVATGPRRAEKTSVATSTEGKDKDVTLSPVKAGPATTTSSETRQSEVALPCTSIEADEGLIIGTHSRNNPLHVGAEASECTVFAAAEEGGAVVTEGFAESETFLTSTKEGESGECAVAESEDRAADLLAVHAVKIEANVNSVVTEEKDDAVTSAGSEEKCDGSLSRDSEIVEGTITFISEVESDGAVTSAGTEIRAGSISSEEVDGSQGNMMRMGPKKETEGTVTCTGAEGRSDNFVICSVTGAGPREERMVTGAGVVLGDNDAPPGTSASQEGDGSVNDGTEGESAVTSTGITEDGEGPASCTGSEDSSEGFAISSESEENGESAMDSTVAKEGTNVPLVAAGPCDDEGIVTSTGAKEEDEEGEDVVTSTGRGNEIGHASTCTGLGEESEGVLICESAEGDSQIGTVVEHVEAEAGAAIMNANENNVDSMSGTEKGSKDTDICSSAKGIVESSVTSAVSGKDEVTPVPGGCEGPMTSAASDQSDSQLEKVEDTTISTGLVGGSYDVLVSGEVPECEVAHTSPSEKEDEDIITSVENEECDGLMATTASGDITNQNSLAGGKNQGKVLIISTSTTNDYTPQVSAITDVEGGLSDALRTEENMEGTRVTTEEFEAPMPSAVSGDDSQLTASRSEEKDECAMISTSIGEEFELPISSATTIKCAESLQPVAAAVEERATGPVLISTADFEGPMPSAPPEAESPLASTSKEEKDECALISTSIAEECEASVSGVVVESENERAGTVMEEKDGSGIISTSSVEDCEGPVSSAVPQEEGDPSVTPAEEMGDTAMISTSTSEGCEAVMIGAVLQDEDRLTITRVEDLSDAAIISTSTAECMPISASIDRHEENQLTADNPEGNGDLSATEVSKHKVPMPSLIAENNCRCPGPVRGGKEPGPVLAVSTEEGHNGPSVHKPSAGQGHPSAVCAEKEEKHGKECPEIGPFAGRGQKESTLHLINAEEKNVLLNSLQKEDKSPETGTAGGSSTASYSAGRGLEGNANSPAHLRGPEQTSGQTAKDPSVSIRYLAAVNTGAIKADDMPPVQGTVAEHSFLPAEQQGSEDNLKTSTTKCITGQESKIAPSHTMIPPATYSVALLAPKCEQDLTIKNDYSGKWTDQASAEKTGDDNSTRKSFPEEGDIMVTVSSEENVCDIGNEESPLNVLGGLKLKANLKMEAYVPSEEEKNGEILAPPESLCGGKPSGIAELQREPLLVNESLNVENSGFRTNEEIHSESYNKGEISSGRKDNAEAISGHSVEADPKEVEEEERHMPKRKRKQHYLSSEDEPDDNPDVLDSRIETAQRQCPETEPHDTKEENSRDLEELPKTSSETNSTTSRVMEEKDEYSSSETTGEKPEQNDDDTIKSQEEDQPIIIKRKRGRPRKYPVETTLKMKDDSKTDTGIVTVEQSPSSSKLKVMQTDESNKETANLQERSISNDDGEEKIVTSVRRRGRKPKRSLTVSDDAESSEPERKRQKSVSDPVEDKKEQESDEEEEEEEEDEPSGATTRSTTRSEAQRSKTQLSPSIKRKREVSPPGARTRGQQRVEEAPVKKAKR
UniProt Q8WZA9: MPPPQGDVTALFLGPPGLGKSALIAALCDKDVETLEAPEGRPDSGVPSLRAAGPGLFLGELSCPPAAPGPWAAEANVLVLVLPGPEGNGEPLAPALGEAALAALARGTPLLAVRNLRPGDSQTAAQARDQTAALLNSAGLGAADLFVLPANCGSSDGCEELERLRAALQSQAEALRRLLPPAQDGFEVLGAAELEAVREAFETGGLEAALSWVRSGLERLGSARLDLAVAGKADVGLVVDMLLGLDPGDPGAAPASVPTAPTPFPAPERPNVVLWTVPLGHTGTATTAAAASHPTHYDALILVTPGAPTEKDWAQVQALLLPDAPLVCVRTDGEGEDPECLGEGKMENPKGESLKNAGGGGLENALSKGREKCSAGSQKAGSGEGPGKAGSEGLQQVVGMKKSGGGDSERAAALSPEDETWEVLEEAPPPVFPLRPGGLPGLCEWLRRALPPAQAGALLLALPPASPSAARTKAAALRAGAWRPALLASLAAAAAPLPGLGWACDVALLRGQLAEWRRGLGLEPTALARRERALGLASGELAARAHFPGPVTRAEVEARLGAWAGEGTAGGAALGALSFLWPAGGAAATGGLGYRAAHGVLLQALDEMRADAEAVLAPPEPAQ
UniProt Q8TDD1, whole entry, looked up: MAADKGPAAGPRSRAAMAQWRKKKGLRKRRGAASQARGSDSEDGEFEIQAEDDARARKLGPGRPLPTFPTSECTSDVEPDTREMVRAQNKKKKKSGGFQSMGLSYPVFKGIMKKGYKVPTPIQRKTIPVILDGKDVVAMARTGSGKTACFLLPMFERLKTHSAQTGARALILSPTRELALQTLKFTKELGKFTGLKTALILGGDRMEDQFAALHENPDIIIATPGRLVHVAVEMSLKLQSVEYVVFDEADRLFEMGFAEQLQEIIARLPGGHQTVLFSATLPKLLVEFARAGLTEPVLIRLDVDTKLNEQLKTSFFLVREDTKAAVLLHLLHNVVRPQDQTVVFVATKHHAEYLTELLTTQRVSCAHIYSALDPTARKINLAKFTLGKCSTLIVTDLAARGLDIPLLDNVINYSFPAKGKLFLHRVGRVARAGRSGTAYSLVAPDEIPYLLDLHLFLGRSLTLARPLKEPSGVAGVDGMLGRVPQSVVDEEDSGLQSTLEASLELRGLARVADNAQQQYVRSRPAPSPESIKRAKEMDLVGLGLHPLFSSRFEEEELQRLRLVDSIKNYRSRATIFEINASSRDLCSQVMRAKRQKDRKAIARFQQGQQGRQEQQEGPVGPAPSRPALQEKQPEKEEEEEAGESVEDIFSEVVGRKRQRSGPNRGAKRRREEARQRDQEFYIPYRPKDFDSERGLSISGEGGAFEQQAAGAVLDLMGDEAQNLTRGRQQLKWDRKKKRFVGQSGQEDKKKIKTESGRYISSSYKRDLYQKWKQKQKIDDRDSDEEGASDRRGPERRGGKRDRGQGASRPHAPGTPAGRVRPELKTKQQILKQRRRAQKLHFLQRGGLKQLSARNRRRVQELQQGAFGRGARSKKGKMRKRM

log2 ratio of iodoacetamide-alkyne labeling, inactive:
IPO4 C735 (UniProt Q8TEX9) 0.0259
SLC25A40 C142 (UniProt Q8TBP6) 0.498
ATXN2L C58 (UniProt Q8WWM7) 0.0836
SVBP C58 (UniProt Q8N300) -0.00768
NEK7 C298 (UniProt Q8TDX7) 0.142
TBC1D15 C686 (UniProt Q8TC07) 0.284
UniProt Q8TE02_C203 -0.67
NUDCD2 C99 (UniProt Q8WVJ2) 0.0469
GSTCD C335 (UniProt Q8NEC7) -0.0208
UniProt Q8WUQ7_C699 0.0827
UniProt Q8NHM5_C533 0.0746
NECAP1 C162 (UniProt Q8NC96) 0.527
UniProt Q8WYL5_C626 0.271
UniProt Q8WXK3_C9 0.416
AHCTF1 C693 (UniProt Q8WYP5) 0.243
UniProt Q8NBU5_C303 0.0857
KLHL36 C263 (UniProt Q8N4N3) -0.0277
ZNF280C C734 (UniProt Q8ND82) 0.252
C2orf69 C54 (UniProt Q8N8R5) 0.221
SPATA5 C27 (UniProt Q8NB90) 0.382
RBM15B C859 (UniProt Q8NDT2) -0.173
AHCTF1 C521 (UniProt Q8WYP5) 0.152
SPATA5 C318 (UniProt Q8NB90) 0.342
UniProt Q8NFC6_C2164 0.254
UniProt Q8N1I0_C1723 0.543
UniProt Q8WZA9_C373 0.636
UniProt Q8N163_C443 0.118
UniProt Q8NBU5_C359 0.141
DNAJB14 C77 (UniProt Q8TBM8) 0.491
FBXO30 C396 (UniProt Q8TB52) 0.0458
FLAD1 C499 (UniProt Q8NFF5) 0.105
UBR7 C260 (UniProt Q8N806) 0.224
BBX C599 (UniProt Q8WY36) 0.152
DDX54 C389 (UniProt Q8TDD1) -0.0673
NCOA7 C439 (UniProt Q8NI08) 0.231
UniProt Q8N6Q8_C5 0.32
SLC38A9 C41 (UniProt Q8NBW4) -0.326

Taken from above (2 entries):
log2 ratio of iodoacetamide-alkyne labeling, inactive:
NUDCD2 C99 (UniProt Q8WVJ2) 0.0469
GSTCD C335 (UniProt Q8NEC7) -0.0208
